Results published in patent US20120157451A1, “RAF INHIBITOR COMPOUNDS AND METHODS OF USE THEREOF” (GENENTECH, INC, priority 2009, published 2012).
Some results were stated once for a whole list of compounds, not compound by compound.

The chains behind the UniProt entries cited, without tags or fusion partners.
UniProt P15056, whole entry V600E: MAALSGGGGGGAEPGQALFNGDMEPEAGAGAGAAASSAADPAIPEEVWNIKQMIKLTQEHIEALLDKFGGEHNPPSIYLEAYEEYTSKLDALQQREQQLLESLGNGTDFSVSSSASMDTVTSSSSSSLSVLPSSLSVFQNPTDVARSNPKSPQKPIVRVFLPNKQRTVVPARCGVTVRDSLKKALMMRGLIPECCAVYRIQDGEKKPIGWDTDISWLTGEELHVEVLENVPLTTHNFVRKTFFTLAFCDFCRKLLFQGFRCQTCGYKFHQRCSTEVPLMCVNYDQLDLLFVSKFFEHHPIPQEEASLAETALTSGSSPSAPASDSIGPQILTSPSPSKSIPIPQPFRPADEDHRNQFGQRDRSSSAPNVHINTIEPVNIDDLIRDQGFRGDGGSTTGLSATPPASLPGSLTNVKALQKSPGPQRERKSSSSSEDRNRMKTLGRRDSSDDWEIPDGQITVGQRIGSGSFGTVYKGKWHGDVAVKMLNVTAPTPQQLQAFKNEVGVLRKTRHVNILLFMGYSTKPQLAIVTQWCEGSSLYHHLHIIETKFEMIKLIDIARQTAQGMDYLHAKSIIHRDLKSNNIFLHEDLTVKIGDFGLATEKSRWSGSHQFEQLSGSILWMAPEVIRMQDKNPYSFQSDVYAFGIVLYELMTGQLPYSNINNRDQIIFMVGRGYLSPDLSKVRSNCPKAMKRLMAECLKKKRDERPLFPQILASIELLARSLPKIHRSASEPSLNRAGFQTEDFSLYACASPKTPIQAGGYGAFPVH

molecular target: T1, V600E full-length B-Raf (Homo sapiens, UniProt P15056, V600E); assay: B-Raf IC50 assay (incorporation of radiolabeled phosphate from [γ-33P]ATP into FSBA-modified wild-type MEK); assay type: biochemical; settings: bound stated
T1 construct: made in house; host or cells: Sf9 insect cells (baculovirus)
Source text: Determining the activity of Raf in the sample is possible by a number of direct and indirect detection methods (US 2004/0082014). Activity of human recombinant B-Raf protein may be assessed in vitro by assay of the incorporation of radio labeled phosphate to recombinant MAP kinase (MEK), a known physiologic substrate of B-Raf, according to US 2004/0127496 and WO 03/022840.
Activity of human recombinant B-Raf protein may be assessed in vitro by assay of the incorporation of radio labeled phosphate to recombinant MAP kinase (MEK), a known physiologic substrate of B-Raf, according to US 2004/0127496 and WO 03/022840. Catalytically active human recombinant B-Raf protein is obtained by purification from sf9 insect cells infected with a human B-Raf recombinant baculovirus expression vector.
Incubations were carried out at 22° C. in a Costar 3365 plate (Corning). Prior to the assay, the B-Raf and FSBA-MEK were preincubated together in assay buffer at 1.5× (20 μL of 30 nM and 1.5 μM, respectively) for 15 minutes, and the assay was initiated by the addition of 10 μL of 10 μM ATP. Following the 60-minute incubation, the assay mixtures were quenched by the addition of 100 μL of 25% TCA, the plate was mixed on a rotary shaker for 1 minute, and the product was captured on a Perkin-Elmer GF/B filter plate using a Tomtec Mach III Harvester. After sealing the bottom of the plate, […] of Bio-Safe II (Research Products International) scintillation cocktail were added to each well and the plate was top-sealed and counted in a Topcount NXT (Packard).

IC50, < 1 µM:
CCCS(=O)(=O)Nc1ccc(F)c(C(=O)Nc2cnc3cc(-c4cnn(C)c4)nn3c2)c1F [Example 12, 2,6-difluoro-N-(2-(1-methyl-1H-pyrazol-4-yl)pyrazolo[1,5-a]pyrimidin-6-yl)-3-(propylsulfonamido)benzamide]
CCCS(=O)(=O)Nc1ccc(F)c(C(=O)Nc2cnc3cc(OCC)nn3c2)c1F [Example 3, N-(2-ethoxypyrazolo[1,5-a]pyrimidin-6-yl)-2,6-difluoro-3-(propylsulfonamido)benzamide]
CCCS(=O)(=O)Nc1ccc(F)c(C(=O)Nc2cnc3ccnn3c2)c1F [Example 27, 2,6-difluoro-3-(propylsulfonamido)-N-(pyrazolo[1,5-a]pyrimidin-6-yl)benzamide]
CCCS(=O)(=O)Nc1ccc(F)c(C(=O)Nc2cnc3cc(C)nn3c2)c1F [Example 26, 2,6-difluoro-N-(2-methylpyrazolo [1,5-a]pyrimidin-6-yl)-3-(propylsulfonamido) benzamide]
CCCS(=O)(=O)Nc1ccc(F)c(C(=O)Nc2cnc3cc(OCCOC)nn3c2)c1F [Example 16, 2,6-difluoro-N-(2-(2-methoxyethoxy)pyrazolo[1,5-a]pyrimidin-6-yl)-3-(propylsulfonamido)benzamide]
CCCS(=O)(=O)Nc1ccc(F)c(C(=O)Nc2cnc3cc(OCCOC)nn3c2)c1Cl [Example 34, 2-chloro-6-fluoro-N-(2-(2-methoxyethoxy)pyrazolo[1,5-a]pyrimidin-6-yl)-3-(propylsulfonamido) benzamide]
CCCS(=O)(=O)Nc1ccc(F)c(C(=O)Nc2cnc3cc(-c4cccnc4)nn3c2)c1F [Example 10, 2,6-difluoro-3-(propylsulfonamido)-N-(2-(pyridin-3-yl)pyrazolo[1,5-a]pyrimidin-6-yl)benzamide]
CCCS(=O)(=O)Nc1ccc(Cl)c(C(=O)Nc2cnc3cc(-c4ccccc4)nn3c2)c1F [Example 33, 6-chloro-2-fluoro-N-(2-phenylpyrazolo [1,5-a]pyrimidin-6-yl)-3-(propylsulfonamido) benzamide]
CCCS(=O)(=O)Nc1ccc(F)c(C(=O)Nc2cnc3cc(OCCO)nn3c2)c1F [Example 15, 2,6-difluoro-N-(2-(2-hydroxyethoxy)pyrazolo[1,5-a]pyrimidin-6-yl)-3-(propylsulfonamido)benzamide]
CCCS(=O)(=O)Nc1ccc(F)c(C(=O)Nc2cnc3cc(-c4ccc(Cl)cc4)nn3c2)c1F [Example 6, N-(2-(4-chlorophenyl)pyrazolo[1,5-a]pyrimidin-6-yl)-2,6-difluoro-3-(propylsulfonamido)benzamide]
CCCS(=O)(=O)Nc1ccc(Cl)c(C(=O)Nc2cnc3cc(OC)nn3c2)c1F [Example 19, 6-chloro-2-fluoro-N-(2-methoxypyrazolo [1,5-a]pyrimidin-6-yl)-3-(propylsulfonamido) benzamide]
CCCS(=O)(=O)Nc1ccc(F)c(C(=O)Nc2cnc3cc(N4CCCC4)nn3c2)c1F [Example 17, 2,6-difluoro-3-(propylsulfonamido)-N-(2-(pyrrolidin-1-yl)pyrazolo[1,5-a]pyrimidin-6-yl)benzamide]
CCCS(=O)(=O)Nc1ccc(F)c(C(=O)Nc2cnc3cc(NC)nn3c2)c1F [Example 35, 2,6-difluoro-N-(2-(methylamino)pyrazolo[1,5-a]pyrimidin-6-yl)-3-(propylsulfonamido) benzamide]
CCCS(=O)(=O)Nc1ccc(F)c(C(=O)Nc2cnc3cc(SC)nn3c2)c1F [Example 14, 2,6-difluoro-N-(2-(methylthio)pyrazolo[1,5-a]pyrimidin-6-yl)-3-(propylsulfonamido)benzamide]
CCCS(=O)(=O)Nc1ccc(F)c(C(=O)Nc2cnc3cc(OC(C)C)nn3c2)c1F [Example 2, 2,6-difluoro-N-(2-isopropoxypyrazolo[1,5-a]pyrimidin-6-yl)-3-(propylsulfonamido)benzamide]
CCN(C)S(=O)(=O)Nc1ccc(F)c(C(=O)Nc2cnc3cc(OC)nn3c2)c1F [Example 23, 3-(N-ethyl-N-methylsulfamoyl-amino)-2,6-difluoro-N-(2-methoxypyrazolo [1,5-a]pyrimidin-6-yl)benzamide]
CCCS(=O)(=O)Nc1ccc(F)c(C(=O)Nc2cnc3cc(-c4cccc(F)c4)nn3c2)c1F [Example 9, 2,6-difluoro-N-(2-(3-fluorophenyl)pyrazolo[1,5-a]pyrimidin-6-yl)-3-(propylsulfonamido)benzamide]
CCCS(=O)(=O)Nc1ccc(F)c(C(=O)Nc2cnc3cc(N4CCOCC4)nn3c2)c1F [Example 36, 2,6-difluoro-N-(2-morpholinopyrazolo [1,5-a]pyrimidin-6-yl)-3-(propylsulfonamido) benzamide]
COc1cc2ncc(NC(=O)c3c(F)ccc(NS(=O)(=O)CC(C)C)c3F)cn2n1 [Example 25, 2,6-difluoro-N-(2-methoxypyrazolo [1,5-a]pyrimidin-6-yl)-3-(2-methylpropyl-sulfonamido) benzamide]
CCCS(=O)(=O)Nc1ccc(F)c(C(=O)Nc2cnc3cc(NC(C)C)nn3c2)c1F [Example 18, 2,6-difluoro-N-(2-(isopropylamino)pyrazolo[1,5-a]pyrimidin-6-yl)-3-(propylsulfonamido)benzamide]
CCCS(=O)(=O)Nc1ccc(F)c(C(=O)Nc2cnc3cc(CC)nn3c2)c1F [Example 29, N-(2-ethylpyrazolo[1,5-a]pyrimidin-6-yl)-2,6-difluoro-3-(propylsulfonamido) benzamide]
COc1cc2ncc(NC(=O)c3c(F)ccc(NS(=O)(=O)N4CCCC4)c3F)cn2n1 [Example 24, 2,6-difluoro-N-(2-methoxypyrazolo [1,5-a]pyrimidin-6-yl)-3-(pyrrolidine-1-sulfonamido) benzamide]
CCCS(=O)(=O)Nc1ccc(F)c(C(=O)Nc2cnc3cc(C4CCCC4)nn3c2)c1F [Example 30, N-(2-cyclopentylpyrazolo [1,5-a]pyrimidin-6-yl)-2,6-difluoro-3-(propylsulfonamido) benzamide]
CCCS(=O)(=O)Nc1ccc(F)c(C(=O)Nc2cnc3cc(-c4cnn(CCO)c4)nn3c2)c1F [Example 13, 2,6-difluoro-N-(2-(1-(2-hydroxyethyl)-1H-pyrazol-4-yl)pyrazolo[1,5-a]pyrimidin-6-yl)-3-(propylsulfonamido)benzamide]
CCCS(=O)(=O)Nc1ccc(F)c(C(=O)Nc2cnc3cc(-c4cccc(N5CCN(C)CC5)c4)nn3c2)c1F [Example 11, 2,6-difluoro-N-(2-(3-(4-methylpiperazin-1-yl)phenyl)pyrazolo[1,5-a]pyrimidin-6-yl)-3-(propylsulfonamido)benzamide]
COc1cc2ncc(NC(=O)c3c(F)ccc(NS(=O)(=O)CCCF)c3F)cn2n1 [Example 21, 2,6-difluoro-3-(3-fluoropropyl-sulfonamido)-N-(2-methoxypyrazolo [1,5-a]pyrimidin-6-yl)benzamide]
CCCS(=O)(=O)Nc1ccc(F)c(C(=O)Nc2cnc3cc(C(F)(F)F)nn3c2)c1F [Example 32, 2,6-difluoro-3-(propylsulfonamido)-N-(2-(trifluoromethyl)pyrazolo[1,5-a]pyrimidin-6-yl)benzamide]
CCCS(=O)(=O)Nc1ccc(F)c(C(=O)Nc2cnc3cc(OC)nn3c2)c1Cl [Example 20, 2-chloro-6-fluoro-N-(2-methoxypyrazolo [1,5-a]pyrimidin-6-yl)-3-(propylsulfonamido) benzamide]
COc1cc2ncc(NC(=O)c3c(Cl)ccc(NS(=O)(=O)CCCF)c3F)cn2n1 [Example 22, 6-chloro-2-fluoro-3-(3-fluoropropyl-sulfonamido)-N-(2-methoxypyrazolo [1,5-a]pyrimidin-6-yl)benzamide]
CCCS(=O)(=O)Nc1ccc(F)c(C(=O)Nc2cnc3cc(-c4ccc(C)cc4)nn3c2)c1F [Example 8, 2,6-difluoro-3-(propylsulfonamido)-N-(2-p-tolylpyrazolo[1,5-a]pyrimidin-6-yl)benzamide]
CCCS(=O)(=O)Nc1ccc(F)c(C(=O)Nc2cnc3cc(C4CCOC4)nn3c2)c1F (stereo not drawn) [Example 31, 2,6-difluoro-3-(propylsulfonamido)-N-(2-(tetrahydrofuran-3-yl)pyrazolo[1,5-a]pyrimidin-6-yl)benzamide]
CCCS(=O)(=O)Nc1ccc(F)c(C(=O)Nc2cnc3cc(-c4ccc(F)cc4)nn3c2)c1F [Example 7, 2,6-difluoro-N-(2-(4-fluorophenyl)pyrazolo[1,5-a]pyrimidin-6-yl)-3-(propylsulfonamido)benzamide]
CCCS(=O)(=O)Nc1ccc(F)c(C(=O)Nc2cnc3cc(C4CCNCC4)nn3c2)c1F [Example 4, 2,6-difluoro-N-(2-(piperidin-4-yl)pyrazolo[1,5-a]pyrimidin-6-yl)-3-(propylsulfonamido)benzamide]
